# Results reported in PubChem BioAssay AID720504 (National Center for Advancing Translational Sciences (NCATS), 2013).
# The chains behind the UniProt entries cited, without tags or fusion partners.
# UniProt P53350, whole entry, looked up: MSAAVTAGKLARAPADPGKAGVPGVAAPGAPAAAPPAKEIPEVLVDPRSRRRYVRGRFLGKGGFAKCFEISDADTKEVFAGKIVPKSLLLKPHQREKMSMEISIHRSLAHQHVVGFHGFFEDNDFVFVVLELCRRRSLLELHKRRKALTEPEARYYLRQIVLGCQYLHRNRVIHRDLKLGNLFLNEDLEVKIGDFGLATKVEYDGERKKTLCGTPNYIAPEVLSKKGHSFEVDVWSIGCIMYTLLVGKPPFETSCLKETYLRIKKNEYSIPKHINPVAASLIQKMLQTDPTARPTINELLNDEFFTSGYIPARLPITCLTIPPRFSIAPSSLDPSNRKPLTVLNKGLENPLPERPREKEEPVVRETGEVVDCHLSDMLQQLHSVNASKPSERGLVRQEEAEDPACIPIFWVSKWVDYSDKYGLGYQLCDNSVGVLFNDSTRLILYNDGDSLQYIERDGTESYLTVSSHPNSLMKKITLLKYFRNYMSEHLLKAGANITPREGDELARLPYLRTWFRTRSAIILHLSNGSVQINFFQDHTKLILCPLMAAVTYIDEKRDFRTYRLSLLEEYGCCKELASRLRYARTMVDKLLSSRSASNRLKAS
# In all, about 360,000 compounds went through this assay and about 10,000 (2.8%) were called active. Inconclusive results, whose numbers are uncertain, are shown with a selection of clear calls. Calls come from the whole dose curve; as a rule, active = well fitted inhibition curve with a large enough effect; inconclusive = small, poorly fitted or top-dose-only effect; inactive = flat fitted curve, though single readings scatter. Potencies of inconclusive entries are doubtful fits and often do not repeat.
# Target: Serine/threonine-protein kinase PLK1 (Homo sapiens) (UniProt P53350)
# Test: qHTS for Inhibitors of PLK1-PDB (polo-like kinase 1 - polo-box domain): Primary Screen; note: nearly all actives have a fitted effect of over 65% in size; for max response, negative = inhibition: series mostly up to about 57 µM
# Conditions: Plk1 PBD binding of FITC phosphopeptide, fluorescence polarization
# % is set by controls: 0 for no effect and ±100 for the full control effect; potency is the fitted concentration of half-maximal effect.
SMILES,Potency,"max response, negative = inhibition"
CCC(CC)c1nnc(NC(=O)CS(=O)(=O)Cc2ccccc2)s1,"inconclusive: 26.7 µM [inhibitor, single point]",
CC1CCC(NC(=O)c2cc3c(=O)n(C)c4ccccc4c3n2C)CC1 (stereo unspecified),,inactive: -6.68%
CCOC(=O)/C(C#N)=C1/SC(CC)C(=O)N1c1ccc(C)cc1 (stereo unspecified),"inconclusive: 23.8 µM [inhibitor, single point]",
Cc1cccc(NC(=O)Cn2nnc(C(=O)NCc3cccs3)c2N)c1C,"inconclusive: 18.9 µM [inhibitor, partial curve]",
O=C(c1ccc([N+](=O)[O-])cc1)N1CCC(Cc2ccccc2)CC1,"inconclusive: 37.7 µM [inhibitor, single point]",
Cc1ccc(NNC(=O)c2ccno2)cc1C,"inconclusive: 37.7 µM [inhibitor, single point]",
CCOC(=O)C1(C)NC(c2ccco2)C2C(=O)N(C)C(=O)C21 (stereo unspecified),"inconclusive: 33.6 µM [inhibitor, partial curve]",
CCOC(=O)C1(CCc2ccccc2)CCN(C(=O)C2CCOCC2)CC1,,inconclusive: -31.8% [inhibitor]
CC(Nc1ccc2ccccc2c1)C(=O)N/N=C/c1ccncc1 (stereo unspecified),,inactive: 2.63%
COc1ccc(CC(=O)Nc2ccc(S(=O)(=O)Nc3nccc(C)n3)cc2)cc1,"inconclusive: 26.7 µM [inhibitor, single point]",
COc1ccc(-c2csc(NC3=NCCCCC3)n2)cc1,,inactive: -2.33%
CCc1nc(SCC(=O)Nc2nnc(C(C)C)s2)n[nH]1,"inconclusive: 37.7 µM [inhibitor, single point]",
CCN(CC)c1ccc(/C=N/NC(=O)c2ccc3c(c2)OCCO3)cc1,,inactive: -12.7%
O=C(Oc1cccc(C(=S)N2CCOCC2)c1)c1ccc([N+](=O)[O-])cc1[N+](=O)[O-],"inconclusive: 26.7 µM [inhibitor, partial curve]",
CC(=O)Nc1ccc(-c2nnn(CC(=O)Nc3ccc4c(c3)OCO4)n2)cc1Cl,"inconclusive: 16.8 µM [inhibitor, partial curve]",
CC1(C)CC(=O)C2=C(C1)OC(N)=C(C#N)C2c1ccccc1[N+](=O)[O-] (stereo unspecified),,inconclusive: -31.4% [inhibitor]
COc1cc(SC)ccc1C(=O)N1CCN(c2ccccc2F)CC1,"inconclusive: 23.8 µM [inhibitor, partial curve]",
CCOC(=O)c1nsnc1NCCSC(=N)N,"inconclusive: 29.9 µM [inhibitor, single point]",
CCOC(=O)C1OC1(c1ccccc1)c1ccccc1 (stereo unspecified),,inactive: 0.883%
Oc1c(C(c2ccccn2)N2CCC(Cc3ccccc3)CC2)cc(Cl)c2cccnc12 (stereo unspecified),"inconclusive: 10.6 µM [inhibitor, partial curve]",
CCOC(=O)c1ccc(N/N=C/c2cc(Br)cc([N+](=O)[O-])c2O)cc1,"inconclusive: 29.9 µM [inhibitor, partial curve]",
Cc1ccc(-n2nc3c(c2NC(=O)c2ccc(S(=O)(=O)N4CCOCC4)cc2)CSC3)c(C)c1,,inactive: -1.29%
Cc1ccc(C)c(C(=O)COc2ccc(C)nc2[N+](=O)[O-])c1,"inconclusive: 26.7 µM [inhibitor, partial curve]",
COc1ccccc1C(=O)Nc1ccc(NC(=O)c2ccco2)cn1,,inactive: -2.12%

SMILES,Potency,"max response, negative = inhibition"
CCOC(CNC(=O)c1ccc2c(c1)ncn2-c1ccccc1OC)OCC,,inactive: -4.22%
CC1(C(=O)NS(=O)(=O)c2cccc(C#N)c2)CCN1C(=O)C1(c2ccc(Cl)cc2)CCC1 (stereo unspecified),"inconclusive: 84.4 µM [inhibitor, single point]",
CC(C)NC(=S)NNc1nc2ccccc2s1,"inconclusive: 37.7 µM [inhibitor, partial curve]",
COc1ccc(C/C(C)=N/NC(=S)Nc2ccccc2F)cc1,"inconclusive: 23.8 µM [inhibitor, single point]",
COCCn1c(SCc2ccccc2)nc2c1c(=O)[nH]c(=O)n2C,"inconclusive: 33.6 µM [inhibitor, partial curve]",
O=C(COC(=O)Cc1ccccc1[N+](=O)[O-])Nc1nnc(-c2ccccc2)o1,,inactive: -7.71%
CN(C)c1ccc(S(=O)(=O)NCC(=O)NCCOc2ccccc2F)cc1[N+](=O)[O-],,inconclusive: -33.2% [inhibitor]
CN1CCN(C(=O)c2ccc3c(c2)N(Cc2cccc(Cl)c2)C(=O)c2ccccc2S3(=O)=O)CC1,active: 26.7 µM,
CCCC(C)c1oc(=O)cc(O)c1C (stereo unspecified),"inconclusive: 23.8 µM [inhibitor, single point]",
S=C(NCc1ccccn1)Nc1ccc(Br)cc1Cl,,inconclusive: -32.1% [inhibitor]
O=C(OCC(=O)c1ccccc1Br)c1ccccn1,"inconclusive: 29.9 µM [inhibitor, single point]",
O=C(NCCOc1ccccc1F)C1CCC(=O)N(CC2CCCCC2)C1 (stereo unspecified),,inactive: -8.03%
COc1ccccc1CNC(=O)c1c(-c2ccccc2)nn(-c2ccccc2)c1C,"inconclusive: 26.7 µM [inhibitor, partial curve, poor fit]",
COc1cc(C(=O)Nc2nc(N)n(-c3ccccc3)n2)cc(OC)c1OC,"inconclusive: 21.2 µM [inhibitor, partial curve]",
O=C(NNC(=O)c1cc2cc(Br)ccc2oc1=O)c1ccc(O)cc1O,"inconclusive: 33.6 µM [inhibitor, single point]",
O=[N+]([O-])/C=C/c1cc2ccccc2[nH]1,"inconclusive: 26.7 µM [inhibitor, single point]",
CCOc1ccc(OCC(=O)NCCS(=O)(=O)N2CCN(c3ccc(F)cc3)CC2)cc1,,inactive: -1.96%
c1ccc2c(Nc3nc4c(s3)CCCC4)cccc2c1,"inconclusive: 23.8 µM [inhibitor, partial curve, poor fit]",
CCOC(=O)/C(N=Nc1ccc2c(c1)OCO2)=C(\C)O,"inconclusive: 33.6 µM [inhibitor, single point]",
C=C(C)C1CC=C(C)/C(=N/NC(=O)c2ccc(NC(=O)CC)cc2)C1 (stereo unspecified),,inactive: -7.77%
CCN(CC)C(=O)CCCc1c[nH]c2ccccc12,"inconclusive: 21.2 µM [inhibitor, single point]",
COC(=O)CSc1nc2c(c(=O)n(C)c(=O)n2C)n1CCC(C)C,"inconclusive: 21.2 µM [inhibitor, partial curve]",
COc1cc(OC)nc(-n2ncc(Br)c(Br)c2=O)n1,"inconclusive: 26.7 µM [inhibitor, partial curve]",
Cc1cc(N2C(=O)C(O)=C(C(=O)c3ccco3)C2c2cccc(Oc3ccccc3)c2)no1 (stereo unspecified),"inconclusive: 29.9 µM [inhibitor, single point]",

# In a second layout: 5 of the compounds above
SMILES | Potency | max response, negative = inhibition
O=C(NNC(=O)c1cc2cc(Br)ccc2oc1=O)c1ccc(O)cc1O | inconclusive: 33.6 µM [inhibitor, single point] | 
O=[N+]([O-])/C=C/c1cc2ccccc2[nH]1 | inconclusive: 26.7 µM [inhibitor, single point] | 
CCOc1ccc(OCC(=O)NCCS(=O)(=O)N2CCN(c3ccc(F)cc3)CC2)cc1 |  | inactive: -1.96%
c1ccc2c(Nc3nc4c(s3)CCCC4)cccc2c1 | inconclusive: 23.8 µM [inhibitor, partial curve, poor fit] | 
CCOC(=O)/C(N=Nc1ccc2c(c1)OCO2)=C(\C)O | inconclusive: 33.6 µM [inhibitor, single point] | 

# (continued)

SMILES,Potency,"max response, negative = inhibition"
CCN(CC)C(=S)SCC(=O)Nc1nc(-c2ccccc2)c(-c2ccccc2)o1,,inactive: -10.1%
Nc1nnnn1/N=C/c1cc(Cl)cc(Cl)c1O,active: 11.9 µM,
S=C(NCCc1ccccc1)Nc1ncccn1,,inconclusive: -30.1% [inhibitor]
Cc1cc(C)cc(N2CC(O)=C(c3nc4ccccc4c(=O)[nH]3)C2=N)c1,,inactive: -0.487%
O=S(=O)(Nc1nccs1)c1ccc(NCc2cc(Br)cc(Br)c2O)cc1,"inconclusive: 26.7 µM [inhibitor, single point]",
CNc1oc(-c2ccc(C)cc2)nc1P(=O)(c1ccccc1)c1ccccc1,,inactive: -0.831%
COc1ccc(C(=O)NCc2nnc(SCC(=O)Nc3cc(Cl)ccc3OC)o2)cc1,"inconclusive: 15 µM [inhibitor, partial curve]",
O=c1cc(CO)oc(C(Nc2ccccn2)c2ccc(C(F)(F)F)cc2)c1O (stereo unspecified),"inconclusive: 37.7 µM [inhibitor, single point]",
O=C(CNCc1cccnc1)Nc1cc(C(F)(F)F)ccc1N1CCOCC1,,inactive: -12.3%
COCCN=C1NN=C(c2cc(C)n(CC3CCCO3)c2C)CS1 (stereo unspecified),"inconclusive: 37.7 µM [inhibitor, single point]",
Cc1ccc2c(c1)C(=O)C(=O)N2Cc1ccc(F)cc1,"inconclusive: 37.7 µM [inhibitor, single point]",
CCc1cccc(C)c1NC(=O)CCCn1c(=O)c2cccn2c2cccnc21,active: 23.8 µM,
Cc1nc2nc(C)c(CCC(=O)O)c(C)n2n1,"inconclusive: 37.7 µM [inhibitor, single point]",
CC=CCn1c(SCc2ccccc2)nc2c1c(=O)[nH]c(=O)n2C,active: 26.7 µM,
Cc1cccc(S(=O)(=O)NNC(=O)Cc2cccn2C)c1,active: 26.7 µM,
CCOc1ccc(S(=O)(=O)/N=C(\N)c2ccccc2)cc1,,inactive: -13.6%
CSc1ccc(NC(=O)C(C)N2CCN(C)CC2)cc1 (stereo unspecified),,inactive: 8.2%
COC(=O)[C@@]1(Cc2ccc(OC)cc2)[C@@H]2[C@@H](CC(=O)[C@H]2CC(=O)C(=O)N(C)C)CN1C(=O)c1ccccc1,,inactive: -0.258%
Cc1oc2cc3c(C(=O)N4CCCCC4)c(C)oc3cc2c1C(=O)N1CCCCC1,"inconclusive: 37.7 µM [inhibitor, single point]",
OC(c1ccccc1)(c1nc(-c2cc(F)cc(F)c2)cs1)C(F)(F)F (stereo unspecified),,inactive: -5.88%
COc1ccc(/C=N/NC(=O)C2c3ccccc3-c3ccccc32)cc1,,inactive: -11.2%
CN(C)C(=O)c1sccc1Oc1ccc(F)cc1[N+](=O)[O-],active: 23.8 µM,
C=C(C)C1CC=C(C)/C(=N/NC(=O)COc2ccccc2C)C1 (stereo unspecified),"inconclusive: 23.8 µM [inhibitor, single point]",
